Results published in article PMC10953581.
Construct, isoform or probe ends are uncertain for at least one entry. For some assays here: No signal at the amounts used counts as a negative. For some assays here: At least one verdict rests on a figure or table, not on a statement of the authors.

Amino acid sequences for entries named in this document (tags omitted). A change or cut given only in a name is not applied to a line headed by its entry.
UniProt P34897: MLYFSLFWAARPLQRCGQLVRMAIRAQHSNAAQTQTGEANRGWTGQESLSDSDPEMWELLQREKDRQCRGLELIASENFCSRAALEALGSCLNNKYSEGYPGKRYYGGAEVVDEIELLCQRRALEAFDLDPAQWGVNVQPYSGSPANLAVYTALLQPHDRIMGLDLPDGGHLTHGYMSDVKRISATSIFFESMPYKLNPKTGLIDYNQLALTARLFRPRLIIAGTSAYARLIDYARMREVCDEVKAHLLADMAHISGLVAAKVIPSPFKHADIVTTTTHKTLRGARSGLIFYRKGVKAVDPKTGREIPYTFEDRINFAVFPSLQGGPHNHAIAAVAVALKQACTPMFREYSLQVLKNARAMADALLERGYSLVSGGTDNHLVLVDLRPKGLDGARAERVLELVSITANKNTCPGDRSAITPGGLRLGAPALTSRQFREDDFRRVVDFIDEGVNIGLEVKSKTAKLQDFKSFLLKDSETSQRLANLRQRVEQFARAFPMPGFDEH

Experiments:
[1] = biological target: human SUMO-SHMT2 (Homo sapiens) (UniProt P34897); test: competition with a labelled probe; conditions: RNA EMSA (LightShift kit): 10 pmol biotin-RNA, 6 ug protein, 1X EMSA binding buffer, 5% glycerol, 0.1 mg/mL tRNA, 20 uL, 30 min, room temperature, salt and pH not stated, recombinant protein, protein details: SUMO
[2] = biological target: human SUMO-SHMT2 (Homo sapiens) (UniProt P34897); test: EMSA; conditions: RNA EMSA (LightShift kit): 10 pmol biotin-RNA, 6 ug protein, 1X EMSA binding buffer, 5% glycerol, 0.1 mg/mL tRNA, 20 uL, 30 min, room temperature; salt and pH not stated; recombinant protein; protein details: SUMO; label: 5' biotin
SUMO alone = test: EMSA; conditions: RNA EMSA (LightShift kit): 10 pmol biotin-RNA, 6 ug protein, 1X EMSA binding buffer, 5% glycerol, 0.1 mg/mL tRNA, 20 uL, 30 min, room temperature; salt and pH not stated; recombinant protein; protein details: SUMO; label: 5' biotin

Row | Sequence | binding result [2] | also measured
1 | GGACGGGUAGGGGCGGGAGGUA [69-90 unlabeled] | – | binding result ([1]; 100-fold excess over labeled 69-90): binds
2 | GGGGCGCGGCUCCGCGUGCCAGUU [91-114] | no binding | –
3 | AGGAAAGCGGGGAAAGGAGGAA [201-222 unlabeled] | – | binding result ([1]; 100-fold excess over labeled 201-222): binds
4 | GUGAGGAAGGAGGCGGAGGUC [135-155] | no binding | –
5 | GGACGGGUAGGGGCGGGAGGUA [69-90] | – | binding result (SUMO alone): no binding
6 | CCUCCGGAUCGAUGUGCUGCUGU [380-402] | no binding | –
7 | GGCGGCAGCGGCAGCGGAAG [425-444] | no binding | –
8 | GGAAACGAACGAGGGGGAGGGA [223-244 unlabeled] | – | binding result ([1]; 100-fold excess over labeled 223-244): binds
9 | UGCGCGCGCCCCUGAAGCGCCUGGG [44-68] | no binding | –
10 | UAACCCGUGAGGAGGCGGCGGC [403-424] | no binding | –
11 | GCGGCGGCAGGCCUAGCAGCA [1-21] | no binding | –
12 | CGGGAACCGUCCCCCGCGCGCA [22-43] | no binding | –
13 | GGUCCCUGUUUUGGA [245-259] | no binding | –
14 | GGGUGCCCGCGCGUCACGUG [115-134] | no binding | –
15 | UGAGUUUCGAAGGAGGGGGG [156-175 unlabeled] | – | binding result ([1]; 100-fold excess over labeled 156-175): binds
16 | GAGAGAAGAGGGAACGAGCAAGGGA [176-200 unlabeled] | – | binding result ([1]; 100-fold excess over labeled 176-200): binds
17 | GGACCAAGCCCCUUCAGCUUCUC [357-379] | no binding | –
